The experiment concerns the target mCherry-BNIP3 (WT). Description: co-IP; RFP-trap magnetic agarose on lysates (0.5% triton X-100 buffer) of B/N DKO HeLa cells expressing mCherry-BNIP3 or mCherry-NIX; cells cultured with 1 mM DFP for 12 h, then 12 h more with 100 nM bafilomycin A1 and DFP; immunoblot. (In general: In western blotting, separated proteins are transferred to a membrane and probed.)

No constants are given. Whether binding was seen depends on the method and setting. Binding seen in cells or lysates may run through a third protein. Binding can be weak; no strength is given.

Data on one molecule can be found in article PMC12071194.

B1: WIPI2 (protein, UniProt Q9Y4P8 1-454)
chain: MNLASQSGEAGAGQLLFANFNQDNTEVKGASRAAGLGRRAVVWSLAVGSKSGYKFFSLSSVDKLEQIYECTDTEDVCIVERLFSSSLVAIVSLKAPRKLKVCHFKKGTEICNYSYSNTILAVKLNRQRLIVCLEESLYIHNIRDMKVLHTIRETPPNPAGLCALSINNDNCYLAYPGSATIGEVQVFDTINLRAANMIPAHDSPLAALAFDASGTKLATASEKGTVIRVFSIPEGQKLFEFRRGVKRCVSICSLAFSMDGMFLSASSNTETVHIFKLETVKEKPPEEPTTWTGYFGKVLMASTSYLPSQVTEMFNQGRAFATVRLPFCGHKNICSLATIQKIPRLLVGAADGYLYMYNLDPQEGGECALMKQHRLDGSLETTNEILDSASHDCPLVTQTYGAAAGKGTYVPSSPTRLAYTDDLGAVGGACLEDEASALRLDEDSEHPPMILRTD
Consider B1, for which the binding entry is given as “binds weakly”.
